{"source": "PubChem BioAssay AID1347075", "about": "(National Center for Advancing Translational Sciences (NCATS), 2019)", "note": "The campaign covered roughly 400,000 compounds. About 5,500 (1.4%) were called active. The inconclusive results got no clear call from the source; some entries with a clear call stand among them for comparison. The call rests on the fitted dose curve; in most records, active means well fitted cell-killing curve with a large enough effect; inconclusive means small, poorly fitted or top-dose-only effect, or effect the other way; inactive means flat fitted curve, though single readings scatter. Where the call is inconclusive, the potency comes from a doubtful curve fit. On the % scale 0 is the no-effect control and ±100 the full control effect; potency means the concentration at half of the fitted maximal effect."}
{"experiment": "qHTS assay for MDR1-selective chemotherapeutics: Primary screen using the parental adenocarcinoma cell KB-3-1; further: nearly all actives have a fitted effect of over 60% in size", "conditions": "KB-3-1 viability, CellTiter-Glo ATP luminescence, 72 h; activity change, negative = cytotoxic: at 46.1 µM (top of the series)", "procedure,_shortened": "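Here the drug-naive KB-3-1 line serves as comparator for MDR sub-line selectivity; cells received compound titrations, 72 h at 37 °C, then CellTiter-Glo readout.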"}
{"compound": "CO/N=C/c1ccc(N2CCN(C(=O)c3cccc(Cl)c3)CC2)c([N+](=O)[O-])c1", "Potency": "inconclusive: 29.1 µM [cytotoxic, single point]"}
{"compound": "Cc1cc(CNC(=O)c2cccc(OC3CCN(S(=O)(=O)N(C)C)CC3)c2)on1", "activity change, negative = cytotoxic": "inactive: -25.6%"}
{"compound": "CC(C)(C)C(=O)Nc1ccccc1C(=O)NCCC(=O)Nc1ccccc1", "activity change, negative = cytotoxic": "inactive: -2.46%"}
{"compound": "CC(=O)Nc1ccc2nc(-c3ccc(Br)o3)[nH]c2c1", "Potency": "inconclusive: 18.4 µM [rising, single point]"}
{"compound": "Cc1cc(NC(=O)CCN2CCN(C/C=C/c3ccccc3)CC2)ccc1Br", "Potency": "inconclusive: 20.6 µM [cytotoxic, single point]"}
{"compound": "Cc1ccccc1COC(=O)c1cc([N+](=O)[O-])ccc1N1CCOCC1", "Potency": "inconclusive: 20.6 µM [cytotoxic, single point]"}
{"compound": "COc1ccc(-c2ccc(CN3C(C(C)C)C(=O)N(Cc4cn(CC5CCCCC5)nn4)CCS3(=O)=O)cc2)cn1", "note": "(centres undefined)", "Potency": "inconclusive: 7.31 µM [cytotoxic, partial curve, poor fit]"}
{"compound": "N#Cc1cnn(-c2ncnc3sc4c(c23)CCCC4)c1N", "Potency": "inconclusive: 13 µM [cytotoxic, partial curve, poor fit]"}
{"compound": "CN(c1ccccc1)S(=O)(=O)c1ccc(NC(=O)c2nc(S(C)(=O)=O)ncc2Cl)cc1", "Potency": "inconclusive: 7.31 µM [cytotoxic, partial curve, poor fit]"}
{"compound": "Cc1nc2nc(C)n(CCN3CCOCC3)c(=O)c2c(-c2cccc([N+](=O)[O-])c2)c1C(=O)CCCCCCCCCCN1CCC(c2ccccc2)(c2ccccc2)CC1", "Potency": "inconclusive: 23.1 µM [cytotoxic, single point]"}
{"compound": "O=C(CSc1nc(C2CCCCC2)nc2ccccc12)NCc1ccco1", "Potency": "inconclusive: 29.1 µM [cytotoxic, single point]"}
{"compound": "Nc1nc(-c2ccccc2)nc2nonc12", "Potency": "inconclusive: 6.51 µM [rising, full curve, poor fit]"}
{"compound": "O=C(Nc1ccc2c(c1)OCCO2)c1ccccc1", "activity change, negative = cytotoxic": "inactive: -15.1%"}
{"compound": "O=C(c1ccco1)c1nnn(Cc2ccccc2)c1-c1ccccc1", "activity change, negative = cytotoxic": "inactive: 9.26%"}
{"compound": "C=CCSC1=N/C(=C\\c2cccnc2)C(=O)N1c1ccc(OC)cc1", "activity change, negative = cytotoxic": "inactive: 25.1%"}
{"compound": "CC1(C(=O)Nc2ccc(Cl)c(C(F)(F)F)c2)Cc2c(-c3ccc4c(c3)OCO4)ccnc2O1", "note": "(centres undefined)", "Potency": "inconclusive: 23.1 µM [cytotoxic, single point]"}
{"compound": "O=[N+]([O-])c1cc(S(=O)(=O)Nc2ccccc2)ccc1N1CCN(c2ccccc2)CC1", "activity change, negative = cytotoxic": "inactive: -23.9%"}
{"compound": "Cc1ccccc1NC(=S)NC(NC(=O)c1ccccc1C)C(Cl)(Cl)Cl", "note": "(centres undefined)", "activity change, negative = cytotoxic": "inactive: 0%"}
{"compound": "Cc1ccc(Nc2nc(NCc3ccco3)c3ccccc3n2)cc1", "Potency": "inconclusive: 16.4 µM [cytotoxic, single point]"}
{"compound": "Cn1cc(CN2CCC(C(=O)NC(c3ccc(F)cc3)c3ccc4ccccc4n3)CC2)c2ccccc21", "note": "(centres undefined)", "Potency": "inconclusive: 29.1 µM [cytotoxic, single point]"}
{"compound": "COc1ccc(Cl)cc1Cn1c(C)c(C(=O)NCc2ccc(C#N)cc2)sc1=O", "activity change, negative = cytotoxic": "inactive: -4.93%"}
{"compound": "CN1CCN(C(=S)c2cn(Cc3ccc(Br)cc3)c3ccccc23)CC1", "activity change, negative = cytotoxic": "inactive: -13.6%"}
{"compound": "OCCC1CN(Cc2nc(-c3ccccc3)cs2)CCN1Cc1ccc(F)cc1", "note": "(centres undefined)", "Potency": "inconclusive: 23.1 µM [cytotoxic, single point]"}
{"compound": "O=C(NCCCN=C1NS(=O)(=O)c2ccccc21)c1ccc(Cl)cc1", "activity change, negative = cytotoxic": "inactive: -2.55%"}
{"compound": "Cc1cc(NC(=O)CSc2nc3cc(C(=O)NCCCOC(C)C)ccc3c(=O)n2Cc2ccco2)no1", "Potency": "inconclusive: 29.1 µM [cytotoxic, single point]"}
{"compound": "COc1ccc(CN2C(=O)CCCC2(C)c2nc3ccccc3[nH]2)cc1", "note": "(centres undefined)", "Potency": "inconclusive: 25.9 µM [rising, single point]"}
{"compound": "c1ccc(Nc2nc(Nc3ccccc3)nc(-n3cccn3)n2)cc1", "Potency": "inconclusive: 18.4 µM [cytotoxic, single point]"}
{"compound": "COc1ccc2c(C)nc(Nc3nc(C)c(C)c(=O)[nH]3)nc2c1", "Potency": "active: 3.66 µM"}
{"compound": "Cc1ccc(CNc2nc3cc(-c4ccccc4)sc3c(=O)n2C)c(C)c1", "activity change, negative = cytotoxic": "inactive: -2.45%"}
{"compound": "CCc1c(C2CC2)ncn1Cc1cccc(-c2ccccc2)c1", "Potency": "active: 14.6 µM"}
{"compound": "COc1ccc(C(=O)Nc2nc(CC(=O)NCCc3ccccc3OC)cs2)cc1", "Potency": "inconclusive: 25.9 µM [cytotoxic, single point]"}
{"compound": "O=C(NCCCn1ccnc1)c1ccc(Br)o1", "activity change, negative = cytotoxic": "inactive: 0%"}
{"compound": "Cc1ccccc1S(=O)(=O)Cc1ccc(C(=O)N2CCN(c3cccc(Cl)c3)CC2)o1", "Potency": "active: 4.11 µM"}
{"compound": "COc1cc(O)c2c(=O)c3c(O)c(O)ccc3oc2c1OC", "Potency": "inconclusive: 29.1 µM [cytotoxic, single point]"}
{"compound": "CC(=O)c1c(C)oc2ccc(N(C(C)=O)S(=O)(=O)c3cccc4cccnc34)cc12", "Potency": "inconclusive: 20.6 µM [cytotoxic, partial curve, poor fit]"}
{"compound": "O=C(Nc1ccc(Br)cc1)NC1CCCCCCC1", "Potency": "inconclusive: 16.4 µM [cytotoxic, single point]"}
{"compound": "CN(C)CCCN(C(=O)C1=COCCO1)c1nc2ccc(Br)cc2s1", "Potency": "inconclusive: 16.4 µM [cytotoxic, single point]"}
{"compound": "COc1cccc(C(=O)N2CCC[C@H]2C(=O)N2CCC[C@H]2C(=O)NCc2ccc(F)cc2F)c1", "activity change, negative = cytotoxic": "inactive: 6.82%"}
{"compound": "Cc1ccc(S(=O)(=O)NCc2ccncc2)cc1C", "Potency": "inconclusive: 1.64 µM [cytotoxic, full curve, poor fit]"}
{"compound": "COC(=O)/C=C1\\OC(c2ccccc2)c2ccccc21", "note": "(centres undefined)", "activity change, negative = cytotoxic": "inactive: -16.7%"}
{"compound": "CCn1c(CCC(=O)Nc2cc(F)ccc2C)nc2cc(S(=O)(=O)N(C)C)ccc21", "activity change, negative = cytotoxic": "inactive: -15.2%"}
{"compound": "Cc1cc(NC(=O)c2ccco2)ccc1NC(=O)c1ccco1", "Potency": "inconclusive: 20.6 µM [cytotoxic, partial curve]"}
{"compound": "Clc1ccccc1Cn1nnc2c(NCC3CC3)ncnc21", "Potency": "inconclusive: 5.8 µM [rising, full curve, poor fit]"}
{"compound": "O=C(Nc1ccc(-c2cn3ccsc3n2)cc1)c1ccc(F)c(S(=O)(=O)N2CCOCC2)c1", "Potency": "inconclusive: 29.1 µM [cytotoxic, single point]"}
